# Some of the results follow.
# B1: PX9961K-bvu-480-28-480 (Bacteroides vulgatus) (protein)
# chain: NKIPTTMAFRTVTDVDNAVNGLYDLMSGSGYYGAAMFAYGDMKGDDMQSSEESGVCNTCYMFNHRPNSLNAGSLWGRPFYILREAWNILNAIAEGKIESGDEKKLNALKGETMAVIALCQFDLTRCFGYPYTKDKGASLGAPLIDHLVGTYENPPRSTVAQAYDFIIETLEEAVTLMSEEKNNGRMNKYAARALLARIYLYHDDNRKAFDLADQLIKDADTSGSYALYPHEKYVAAWSVEAKFGSESFFEIANSVDDTPGRDSWGYLLNWYGYQKGFVTQKYAEQMLADPGDVRGHLLEENKYAGKTVWWLYKLRGTDLKTAPLECNNVVLRLSEVYLIAAEAGCKLGGDAAVQGLGYLNEIVKRGNPDNEVTMADYTLDRVLDERSKELVGEGHRFFDLLRNGKTIVRKGGYHLPSVDEEVDWDFYKCVLPIPEDQFIFSPEMEQNPGYPKN
# What was measured:
# Experiment in all cases: glycan array binding signal (z-score within array); higher = stronger binding
# Settings in all cases: glycan notation: IUPAC condensed, linker removed
# [1] = molecular target: Gal(b1-4)GlcNAc(b1-3)Gal(b1-4)Glc
# Outline: (§1)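 The Consortium for Functional Glycomics database supplied 3228 glycan arrays, of which those lacking an available protein sequence were dropped. The binding signal, a within-array Z-score, was averaged across arrays of the same protein sequence and across linkers. Negative scores can be read as non-binding.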
# [2] = molecular target: Gal(b1-4)GlcNAc(b1-3)Gal(b1-4)GlcNAc
# Outline: as §1
# [3] = molecular target: Gal(b1-4)GlcNAc(b1-3)Gal(b1-4)GlcNAc(b1-2)Man(a1-3)[Gal(b1-4)GlcNAc(b1-3)Gal(b1-4)GlcNAc(b1-2)Man(a1-6)]Man(b1-4)GlcNAc(b1-4)GlcNAc
# Outline: as §1
# [4] = molecular target: Gal(b1-4)GlcNAc(b1-3)Gal(b1-4)GlcNAc(b1-2)Man(a1-3)[Gal(b1-4)GlcNAc(b1-3)Gal(b1-4)GlcNAc(b1-2)Man(a1-6)]Man(b1-4)GlcNAc(b1-4)[Fuc(a1-6)]GlcNAc
# Outline: as §1
# [5] = molecular target: Gal(b1-4)GlcNAc(b1-3)Gal(b1-4)GlcNAc(b1-2)[Gal(b1-4)GlcNAc(b1-3)Gal(b1-4)GlcNAc(b1-6)]Man(a1-6)[Gal(b1-4)GlcNAc(b1-3)Gal(b1-4)GlcNAc(b1-2)Man(a1-3)]Man(b1-4)GlcNAc(b1-4)GlcNAc
# Outline: as §1
# [6] = molecular target: Gal(b1-4)GlcNAc(b1-3)Gal(b1-4)GlcNAc(b1-2)[Gal(b1-4)GlcNAc(b1-3)Gal(b1-4)GlcNAc(b1-6)]Man(a1-6)[Gal(b1-4)GlcNAc(b1-3)Gal(b1-4)GlcNAc(b1-2)Man(a1-3)]Man(b1-4)GlcNAc(b1-4)[Fuc(a1-6)]GlcNAc
# Outline: as §1
# [7] = molecular target: Gal(b1-4)GlcNAc(b1-3)Gal(b1-4)GlcNAc(b1-3)Gal(b1-4)GlcNAc
# Outline: as §1
# [8] = molecular target: Gal(b1-4)GlcNAc(b1-3)Gal(b1-4)GlcNAc(b1-3)Gal(b1-4)GlcNAc(b1-2)Man(a1-3)[Gal(b1-4)GlcNAc(b1-3)Gal(b1-4)GlcNAc(b1-3)Gal(b1-4)GlcNAc(b1-2)Man(a1-6)]Man(b1-4)GlcNAc(b1-4)GlcNAc
# Outline: as §1
# [9] = molecular target: Gal(b1-4)GlcNAc(b1-3)Gal(b1-4)GlcNAc(b1-3)Gal(b1-4)GlcNAc(b1-2)Man(a1-3)[Gal(b1-4)GlcNAc(b1-3)Gal(b1-4)GlcNAc(b1-3)Gal(b1-4)GlcNAc(b1-2)Man(a1-6)]Man(b1-4)GlcNAc(b1-4)[Fuc(a1-6)]GlcNAc
# Outline: as §1
# [10] = molecular target: Gal(b1-4)GlcNAc(b1-3)Gal(b1-4)GlcNAc(b1-3)Gal(b1-4)GlcNAc(b1-2)[Gal(b1-4)GlcNAc(b1-3)Gal(b1-4)GlcNAc(b1-3)Gal(b1-4)GlcNAc(b1-6)]Man(a1-6)[Gal(b1-4)GlcNAc(b1-3)Gal(b1-4)GlcNAc(b1-3)Gal(b1-4)GlcNAc(b1-2)Man(a1-3)]Man(b1-4)GlcNAc(b1-4)[Fuc(a1-6)]GlcNAc
# Outline: as §1
# [11] = molecular target: Gal(b1-4)GlcNAc(b1-3)Gal(b1-4)GlcNAc(b1-3)Gal(b1-4)GlcNAc(b1-3)Gal(b1-4)GlcNAc(b1-2)Man(a1-3)[Gal(b1-4)GlcNAc(b1-3)Gal(b1-4)GlcNAc(b1-3)Gal(b1-4)GlcNAc(b1-3)Gal(b1-4)GlcNAc(b1-2)Man(a1-6)]Man(b1-4)GlcNAc(b1-4)GlcNAc
# Outline: as §1
# [12] = molecular target: Gal(b1-4)GlcNAc(b1-3)Gal(b1-4)GlcNAc(b1-3)Gal(b1-4)GlcNAc(b1-3)Gal(b1-4)GlcNAc(b1-2)Man(a1-3)[Gal(b1-4)GlcNAc(b1-3)Gal(b1-4)GlcNAc(b1-3)Gal(b1-4)GlcNAc(b1-3)Gal(b1-4)GlcNAc(b1-2)Man(a1-6)]Man(b1-4)GlcNAc(b1-4)[Fuc(a1-6)]GlcNAc
# Outline: as §1
# [13] = molecular target: Gal(b1-4)GlcNAc(b1-3)Gal(b1-4)GlcNAc(b1-3)Gal(b1-4)GlcNAc(b1-3)Gal(b1-4)GlcNAc(b1-2)[Gal(b1-4)GlcNAc(b1-3)Gal(b1-4)GlcNAc(b1-3)Gal(b1-4)GlcNAc(b1-3)Gal(b1-4)GlcNAc(b1-6)]Man(a1-6)[Gal(b1-4)GlcNAc(b1-3)Gal(b1-4)GlcNAc(b1-3)Gal(b1-4)GlcNAc(b1-3)Gal(b1-4)GlcNAc(b1-2)Man(a1-3)]Man(b1-4)GlcNAc(b1-4)[Fuc(a1-6)]GlcNAc
# Outline: as §1
# [14] = molecular target: Gal(b1-4)GlcNAc(b1-3)Gal(b1-4)GlcNAc(b1-3)Gal(b1-4)GlcNAc(b1-3)Gal(b1-4)GlcNAc(b1-3)Gal(b1-4)GlcNAc(b1-2)Man(a1-3)[Gal(b1-4)GlcNAc(b1-3)Gal(b1-4)GlcNAc(b1-3)Gal(b1-4)GlcNAc(b1-3)Gal(b1-4)GlcNAc(b1-3)Gal(b1-4)GlcNAc(b1-2)Man(a1-6)]Man(b1-4)GlcNAc(b1-4)GlcNAc
# Outline: as §1
# [15] = molecular target: Gal(b1-4)GlcNAc(b1-3)Gal(b1-4)GlcNAc(b1-3)Gal(b1-4)GlcNAc(b1-3)Gal(b1-4)GlcNAc(b1-3)Gal(b1-4)GlcNAc(b1-2)Man(a1-3)[Gal(b1-4)GlcNAc(b1-3)Gal(b1-4)GlcNAc(b1-3)Gal(b1-4)GlcNAc(b1-3)Gal(b1-4)GlcNAc(b1-3)Gal(b1-4)GlcNAc(b1-2)Man(a1-6)]Man(b1-4)GlcNAc(b1-4)[Fuc(a1-6)]GlcNAc
# Outline: as §1
# [16] = molecular target: Gal(b1-4)GlcNAc(b1-3)Gal(b1-4)GlcNAc(b1-3)Gal(b1-4)GlcNAc(b1-3)Gal(b1-4)GlcNAc(b1-3)Gal(b1-4)GlcNAc(b1-2)[Gal(b1-4)GlcNAc(b1-3)Gal(b1-4)GlcNAc(b1-3)Gal(b1-4)GlcNAc(b1-3)Gal(b1-4)GlcNAc(b1-3)Gal(b1-4)GlcNAc(b1-6)]Man(a1-6)[Gal(b1-4)GlcNAc(b1-3)Gal(b1-4)GlcNAc(b1-3)Gal(b1-4)GlcNAc(b1-3)Gal(b1-4)GlcNAc(b1-3)Gal(b1-4)GlcNAc(b1-2)Man(a1-3)]Man(b1-4)GlcNAc(b1-4)[Fuc(a1-6)]GlcNAc
# Outline: as §1
# [17] = molecular target: Gal(b1-4)GlcNAc(b1-3)Gal(b1-4)GlcNAc(b1-3)Gal(b1-4)GlcNAc(b1-3)Gal(b1-4)GlcNAc(b1-3)Gal(b1-4)GlcNAc(b1-3)Gal(b1-4)GlcNAc(b1-2)Man(a1-3)[Gal(b1-4)GlcNAc(b1-3)Gal(b1-4)GlcNAc(b1-3)Gal(b1-4)GlcNAc(b1-3)Gal(b1-4)GlcNAc(b1-3)Gal(b1-4)GlcNAc(b1-3)Gal(b1-4)GlcNAc(b1-2)Man(a1-6)]Man(b1-4)GlcNAc(b1-4)GlcNAc
# Outline: as §1
# [18] = molecular target: Gal(b1-4)GlcNAc(b1-3)Gal(b1-4)GlcNAc(b1-3)GalNAc
# Outline: as §1
# [19] = molecular target: Gal(b1-4)GlcNAc(b1-3)Gal(b1-4)GlcNAc(b1-3)[Gal(b1-4)GlcNAc(b1-3)Gal(b1-4)GlcNAc(b1-6)]GalNAc
# Outline: as §1
binder,measurement,setting,value
B1,glycan array binding signal (z-score),[1],0.315
same,glycan array binding signal (z-score),[2],-0.349
same,glycan array binding signal (z-score),[3],0.765
same,glycan array binding signal (z-score),[4],-0.026
same,glycan array binding signal (z-score),[5],0.127
same,glycan array binding signal (z-score),[6],0.877
same,glycan array binding signal (z-score),[7],-0.742
same,glycan array binding signal (z-score),[8],0.62
same,glycan array binding signal (z-score),[9],0.206
same,glycan array binding signal (z-score),[10],0.943
same,glycan array binding signal (z-score),[11],0.26
same,glycan array binding signal (z-score),[12],0.745
same,glycan array binding signal (z-score),[13],-0.165
same,glycan array binding signal (z-score),[14],-0.04
same,glycan array binding signal (z-score),[15],-0.219
same,glycan array binding signal (z-score),[16],1.61
same,glycan array binding signal (z-score),[17],1.2
same,glycan array binding signal (z-score),[18],0.669
same,glycan array binding signal (z-score),[19],0.292

# — the supplement of paper PMC8728848
